Source: the supplement of paper PMC10849652
Some of the results follow.

Chains of the proteins cited; added tags and fusions are not shown. Lines headed by an entry give the natural chain unless they say otherwise; changes in a name come on top.
UniProt Q7L5N7: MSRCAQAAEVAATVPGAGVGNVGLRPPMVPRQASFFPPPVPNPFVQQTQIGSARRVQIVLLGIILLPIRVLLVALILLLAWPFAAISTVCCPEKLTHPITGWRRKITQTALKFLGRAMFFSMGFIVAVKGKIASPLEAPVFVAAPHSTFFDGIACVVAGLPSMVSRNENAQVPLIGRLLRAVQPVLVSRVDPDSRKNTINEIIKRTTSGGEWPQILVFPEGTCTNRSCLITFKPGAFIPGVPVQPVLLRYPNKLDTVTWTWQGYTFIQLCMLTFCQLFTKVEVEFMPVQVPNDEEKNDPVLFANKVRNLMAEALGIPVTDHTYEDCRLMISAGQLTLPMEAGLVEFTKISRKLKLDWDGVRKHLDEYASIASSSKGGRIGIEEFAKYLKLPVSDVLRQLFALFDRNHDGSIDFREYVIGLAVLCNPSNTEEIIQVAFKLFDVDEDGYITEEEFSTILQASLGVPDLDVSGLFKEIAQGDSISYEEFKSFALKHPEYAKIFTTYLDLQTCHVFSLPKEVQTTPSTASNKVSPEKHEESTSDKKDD
UniProt Q9P2J5: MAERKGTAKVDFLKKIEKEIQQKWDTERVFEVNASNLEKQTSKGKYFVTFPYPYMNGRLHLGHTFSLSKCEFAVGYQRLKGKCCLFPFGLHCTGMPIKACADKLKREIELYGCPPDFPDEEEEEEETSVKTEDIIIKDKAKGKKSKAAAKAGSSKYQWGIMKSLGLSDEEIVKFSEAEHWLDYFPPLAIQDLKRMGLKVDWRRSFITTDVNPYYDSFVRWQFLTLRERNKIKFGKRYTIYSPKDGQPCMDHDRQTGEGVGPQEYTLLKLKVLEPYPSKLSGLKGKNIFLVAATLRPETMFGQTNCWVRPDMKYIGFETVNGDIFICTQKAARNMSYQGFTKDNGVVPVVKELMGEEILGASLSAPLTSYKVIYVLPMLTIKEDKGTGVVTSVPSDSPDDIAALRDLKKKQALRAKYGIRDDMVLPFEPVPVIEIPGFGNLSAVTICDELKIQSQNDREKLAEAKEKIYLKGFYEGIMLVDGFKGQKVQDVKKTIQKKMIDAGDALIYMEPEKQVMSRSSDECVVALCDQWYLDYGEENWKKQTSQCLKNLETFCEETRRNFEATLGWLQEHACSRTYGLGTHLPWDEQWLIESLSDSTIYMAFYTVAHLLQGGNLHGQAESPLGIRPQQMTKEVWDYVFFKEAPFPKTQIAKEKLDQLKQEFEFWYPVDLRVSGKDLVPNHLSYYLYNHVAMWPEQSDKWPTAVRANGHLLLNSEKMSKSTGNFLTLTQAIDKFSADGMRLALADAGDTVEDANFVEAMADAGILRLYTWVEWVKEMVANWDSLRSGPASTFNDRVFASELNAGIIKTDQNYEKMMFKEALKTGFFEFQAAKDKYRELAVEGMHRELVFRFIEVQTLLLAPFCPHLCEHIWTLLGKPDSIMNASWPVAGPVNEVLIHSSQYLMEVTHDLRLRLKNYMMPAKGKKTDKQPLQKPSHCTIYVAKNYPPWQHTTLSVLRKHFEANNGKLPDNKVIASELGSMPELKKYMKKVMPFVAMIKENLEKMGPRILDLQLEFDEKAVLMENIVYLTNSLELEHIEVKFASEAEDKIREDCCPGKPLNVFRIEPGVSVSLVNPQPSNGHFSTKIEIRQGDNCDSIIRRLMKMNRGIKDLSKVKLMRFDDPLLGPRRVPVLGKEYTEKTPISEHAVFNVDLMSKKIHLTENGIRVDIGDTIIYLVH
UniProt Q9UN81: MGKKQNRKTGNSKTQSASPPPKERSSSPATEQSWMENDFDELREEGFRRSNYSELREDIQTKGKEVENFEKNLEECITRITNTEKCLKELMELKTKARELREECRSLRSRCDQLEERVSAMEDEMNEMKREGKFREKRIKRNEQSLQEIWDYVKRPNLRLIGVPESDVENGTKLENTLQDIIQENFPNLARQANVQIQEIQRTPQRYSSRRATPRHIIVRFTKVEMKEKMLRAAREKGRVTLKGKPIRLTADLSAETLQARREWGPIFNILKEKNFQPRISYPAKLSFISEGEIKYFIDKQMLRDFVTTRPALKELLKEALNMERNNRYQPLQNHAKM
UniProt P36776: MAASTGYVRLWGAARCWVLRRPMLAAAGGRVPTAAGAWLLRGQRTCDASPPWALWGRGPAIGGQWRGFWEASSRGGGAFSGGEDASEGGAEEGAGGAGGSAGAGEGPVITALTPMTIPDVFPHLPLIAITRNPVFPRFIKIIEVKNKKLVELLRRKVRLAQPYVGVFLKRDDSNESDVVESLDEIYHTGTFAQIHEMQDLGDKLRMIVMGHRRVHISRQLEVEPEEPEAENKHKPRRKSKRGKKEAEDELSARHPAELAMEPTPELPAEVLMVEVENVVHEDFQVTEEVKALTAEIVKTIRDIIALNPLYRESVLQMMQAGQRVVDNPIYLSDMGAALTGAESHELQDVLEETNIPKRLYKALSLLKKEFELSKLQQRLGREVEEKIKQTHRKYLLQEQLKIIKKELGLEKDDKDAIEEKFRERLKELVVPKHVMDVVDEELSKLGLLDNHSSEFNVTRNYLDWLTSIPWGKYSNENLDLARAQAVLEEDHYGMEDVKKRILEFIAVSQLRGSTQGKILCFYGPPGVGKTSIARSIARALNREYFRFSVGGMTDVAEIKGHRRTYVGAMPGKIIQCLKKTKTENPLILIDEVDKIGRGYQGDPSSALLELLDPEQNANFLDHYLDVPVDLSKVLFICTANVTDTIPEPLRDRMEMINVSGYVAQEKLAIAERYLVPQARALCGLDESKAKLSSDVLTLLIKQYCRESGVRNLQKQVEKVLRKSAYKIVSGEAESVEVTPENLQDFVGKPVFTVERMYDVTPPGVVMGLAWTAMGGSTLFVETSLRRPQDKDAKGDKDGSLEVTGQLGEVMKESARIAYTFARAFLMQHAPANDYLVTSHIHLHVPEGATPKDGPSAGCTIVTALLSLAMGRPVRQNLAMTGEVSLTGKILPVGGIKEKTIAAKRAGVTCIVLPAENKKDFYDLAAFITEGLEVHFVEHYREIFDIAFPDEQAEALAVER
UniProt Q9H9A6: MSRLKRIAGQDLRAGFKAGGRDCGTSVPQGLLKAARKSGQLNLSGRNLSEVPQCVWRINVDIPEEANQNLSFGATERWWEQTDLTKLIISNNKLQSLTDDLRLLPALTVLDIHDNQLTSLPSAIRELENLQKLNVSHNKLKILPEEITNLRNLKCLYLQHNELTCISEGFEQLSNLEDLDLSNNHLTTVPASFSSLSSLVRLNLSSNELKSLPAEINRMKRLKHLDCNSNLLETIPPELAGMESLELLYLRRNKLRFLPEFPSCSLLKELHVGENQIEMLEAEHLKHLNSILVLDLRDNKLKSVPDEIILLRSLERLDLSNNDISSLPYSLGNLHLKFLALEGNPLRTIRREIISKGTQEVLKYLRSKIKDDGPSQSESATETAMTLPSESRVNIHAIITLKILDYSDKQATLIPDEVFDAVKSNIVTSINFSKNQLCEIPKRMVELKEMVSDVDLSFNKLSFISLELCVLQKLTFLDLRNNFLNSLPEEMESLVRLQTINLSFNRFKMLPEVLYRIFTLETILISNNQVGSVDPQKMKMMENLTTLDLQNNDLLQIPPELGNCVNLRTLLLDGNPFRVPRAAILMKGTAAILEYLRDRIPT
UniProt Q14657: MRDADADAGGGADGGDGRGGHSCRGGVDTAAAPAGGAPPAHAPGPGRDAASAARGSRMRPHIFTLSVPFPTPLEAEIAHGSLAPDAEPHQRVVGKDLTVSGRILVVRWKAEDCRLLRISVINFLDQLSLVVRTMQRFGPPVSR
UniProt Q92539: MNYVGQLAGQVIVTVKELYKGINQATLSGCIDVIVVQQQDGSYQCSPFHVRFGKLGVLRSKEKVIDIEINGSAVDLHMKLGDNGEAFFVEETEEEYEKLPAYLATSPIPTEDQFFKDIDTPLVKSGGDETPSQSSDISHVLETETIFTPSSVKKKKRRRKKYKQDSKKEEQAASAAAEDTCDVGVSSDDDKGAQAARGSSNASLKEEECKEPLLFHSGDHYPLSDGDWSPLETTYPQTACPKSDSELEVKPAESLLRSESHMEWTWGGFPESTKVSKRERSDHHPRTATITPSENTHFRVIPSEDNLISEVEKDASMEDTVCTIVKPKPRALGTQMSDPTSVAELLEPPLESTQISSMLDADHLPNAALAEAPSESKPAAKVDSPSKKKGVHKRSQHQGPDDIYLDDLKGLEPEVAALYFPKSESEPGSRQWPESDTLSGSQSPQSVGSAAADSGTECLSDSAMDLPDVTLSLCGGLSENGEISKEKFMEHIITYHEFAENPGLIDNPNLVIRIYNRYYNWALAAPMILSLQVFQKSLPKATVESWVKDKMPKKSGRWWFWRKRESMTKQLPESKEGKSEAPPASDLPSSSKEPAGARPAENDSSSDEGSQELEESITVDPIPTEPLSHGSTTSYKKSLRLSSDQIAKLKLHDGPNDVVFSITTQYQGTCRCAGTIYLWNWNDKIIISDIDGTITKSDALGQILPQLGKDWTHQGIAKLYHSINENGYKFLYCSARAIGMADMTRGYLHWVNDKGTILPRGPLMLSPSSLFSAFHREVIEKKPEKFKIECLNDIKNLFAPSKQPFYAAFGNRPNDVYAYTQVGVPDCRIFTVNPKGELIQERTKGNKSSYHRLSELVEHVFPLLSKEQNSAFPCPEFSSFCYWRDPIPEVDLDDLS
UniProt Q8IWU2: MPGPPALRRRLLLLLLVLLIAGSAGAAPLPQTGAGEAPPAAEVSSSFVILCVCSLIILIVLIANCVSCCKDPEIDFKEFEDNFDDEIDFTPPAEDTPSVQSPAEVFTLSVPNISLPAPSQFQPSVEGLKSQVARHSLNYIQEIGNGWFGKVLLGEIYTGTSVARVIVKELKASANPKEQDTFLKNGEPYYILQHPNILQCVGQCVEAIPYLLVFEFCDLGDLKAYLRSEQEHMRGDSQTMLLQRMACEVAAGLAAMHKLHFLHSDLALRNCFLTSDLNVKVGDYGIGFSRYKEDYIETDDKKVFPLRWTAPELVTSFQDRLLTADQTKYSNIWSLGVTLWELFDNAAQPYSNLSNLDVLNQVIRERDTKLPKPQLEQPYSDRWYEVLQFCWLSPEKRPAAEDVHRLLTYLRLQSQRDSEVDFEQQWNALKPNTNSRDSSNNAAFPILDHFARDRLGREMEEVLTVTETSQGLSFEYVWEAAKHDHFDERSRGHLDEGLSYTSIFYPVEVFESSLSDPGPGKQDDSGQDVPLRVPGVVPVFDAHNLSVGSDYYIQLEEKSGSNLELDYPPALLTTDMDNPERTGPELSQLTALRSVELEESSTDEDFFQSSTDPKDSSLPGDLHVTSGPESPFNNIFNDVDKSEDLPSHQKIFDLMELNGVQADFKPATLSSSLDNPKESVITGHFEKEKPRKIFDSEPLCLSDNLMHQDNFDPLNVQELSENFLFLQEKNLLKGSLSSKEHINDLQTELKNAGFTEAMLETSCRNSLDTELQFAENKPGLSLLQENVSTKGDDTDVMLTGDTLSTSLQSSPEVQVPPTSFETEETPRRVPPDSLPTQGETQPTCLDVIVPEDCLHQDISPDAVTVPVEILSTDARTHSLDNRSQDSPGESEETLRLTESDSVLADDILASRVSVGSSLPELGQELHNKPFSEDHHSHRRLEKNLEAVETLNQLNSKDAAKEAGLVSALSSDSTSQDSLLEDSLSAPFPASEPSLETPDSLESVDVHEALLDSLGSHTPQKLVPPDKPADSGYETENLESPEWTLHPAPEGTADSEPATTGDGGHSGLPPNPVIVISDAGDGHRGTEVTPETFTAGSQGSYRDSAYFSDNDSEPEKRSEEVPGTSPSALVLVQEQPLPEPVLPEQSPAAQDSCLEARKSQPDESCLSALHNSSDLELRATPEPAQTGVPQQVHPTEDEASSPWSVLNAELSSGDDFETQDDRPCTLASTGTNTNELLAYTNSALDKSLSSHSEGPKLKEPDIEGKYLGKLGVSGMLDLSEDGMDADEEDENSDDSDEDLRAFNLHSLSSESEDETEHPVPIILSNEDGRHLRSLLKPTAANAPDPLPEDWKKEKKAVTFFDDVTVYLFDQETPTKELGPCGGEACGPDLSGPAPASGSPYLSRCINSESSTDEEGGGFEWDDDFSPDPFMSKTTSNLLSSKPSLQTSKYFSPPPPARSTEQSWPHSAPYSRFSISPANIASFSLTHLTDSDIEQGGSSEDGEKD
UniProt P07195, whole entry, looked up: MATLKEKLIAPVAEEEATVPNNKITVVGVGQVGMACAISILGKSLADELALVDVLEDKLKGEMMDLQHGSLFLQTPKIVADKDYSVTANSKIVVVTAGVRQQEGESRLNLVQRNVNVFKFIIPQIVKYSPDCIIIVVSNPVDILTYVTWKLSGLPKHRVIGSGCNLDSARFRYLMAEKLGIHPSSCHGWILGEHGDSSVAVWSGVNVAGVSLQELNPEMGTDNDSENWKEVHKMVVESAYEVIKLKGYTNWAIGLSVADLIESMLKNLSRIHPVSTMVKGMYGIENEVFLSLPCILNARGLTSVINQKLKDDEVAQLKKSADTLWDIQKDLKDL

Legend:
Test in all cases: log2 fold change, soluble protein after heating vs DMSO (PISA); higher = thermal stabilisation; K562 cells, 10 uM, 30 min; active = over 0.2 and 3.5 SD of the protein, either way, in both replicates (recomputed)
[1] = compound: C1=CC=C(C=C1)[C@H](COC2=CC3=C(C=C2)NC(=O)N3)NC(=O)C4=CC=CN(C4=O)CC5=CC(=C(C=C5)F)F
How it was run: (§1)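 Values are thermal stability changes relative to control samples and are taken from duplicates. They are stated as log2 fold changes. Before quantification by TMTpro 16plex LC-MS/MS with equalised channel sums, K562 cells at 2×10^6 cells/mL were treated with 10 μM compound for 30 min, heated in aliquots for 3 min across 48°C-58°C, pooled, extracted in PBS with 0.5% NP-40 at 4°C, and centrifuged at 21,000xg for 90 min to give the soluble supernatant.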

[2] = compound: CC1=C(SC2=C1C(=N[C@H](C3=NN=C(N32)C)CC(=O)N)C4=CC=C(C=C4)Cl)C
How it was run: as §1

[3] = compound: CC1=C2C(=CC=C1)N=C(N(C2=O)C3=CC=CC=C3C)CN4C=NC5=C(N=CN=C54)N
How it was run: as §1

[4] = compound: Cc1sc2c(c1C)C(c1ccc(Cl)cc1)=N[C@@H](CC(=O)OC(C)(C)C)c1nnc(C)n1-2
How it was run: as §1

[5] = compound: c1ccc([C@@H]2C[C@H]2NC2CCNCC2)cc1
How it was run: as §1

Measured: log2 fold change

LEMD3 (UniProt Q9Y2U8)
inactive: [1] 0.067 | [2] 0.034 | [3] 0.119 | [4] -0.031 | [5] -0.01

LENG8 (UniProt Q96PV6)
inactive: [1] 0.036 | [2] 0.177 | [3] -0.356 | [4] -0.028 | [5] 0.022

LARP1 (UniProt Q6PKG0)
inactive: [1] 0.002 | [2] -0.046 | [3] -0.046 | [4] 0.151 | [5] -0.002

LPCAT2 (UniProt Q7L5N7)
inactive: [1] -0.051 | [2] 0.057 | [3] 0.049 | [4] -0.141 | [5] -0.071

LARS (UniProt Q9P2J5)
inactive: [1] -0.007 | [2] -0.11 | [3] -0.089 | [4] 0.168 | [5] -0.01

L1RE1 (UniProt Q9UN81)
inactive: [1] 0.059 | [2] 0.045 | [3] -0.204 | [4] 0.097 | [5] -0.01

LONP1 (UniProt P36776)
inactive: [1] 0.003 | [2] -0.003 | [3] 0 | [4] -0.012 | [5] 0.011

LRRC40 (UniProt Q9H9A6)
inactive: [1] -0.122 | [2] 0.056 | [3] 0.066 | [4] 0.019 | [5] 0.038

L3HYPDH (UniProt Q96EM0)
inactive: [1] 0.026 | [2] 0.123 | [3] 0.039 | [4] -0.006 | [5] -0.07

LARP4B (UniProt Q92615)
inactive: [1] -0.003 | [2] -0.013 | [3] 0 | [4] 0.081 | [5] -0.014

LMNB2 (UniProt Q03252)
inactive: [1] 0.04 | [2] 0.052 | [3] 0.062 | [4] -0.04 | [5] 0.053

LDAH isoform 2 (UniProt Q9H6V9)
inactive: [1] -0.125 | [2] 0.019 | [3] 0.086 | [4] 0.174 | [5] -0.059

LPCAT1 (UniProt Q8NF37)
inactive: [1] -0.017 | [2] 0.039 | [3] 0.047 | [4] -0.062 | [5] 0.058

LAGE3 (UniProt Q14657)
inactive: [1] -0.018 | [2] 0.029 | [3] 0.053 | [4] -0.075 | [5] 0.006

LPIN2 (UniProt Q92539)
inactive: [1] 0.054 | [2] 0.037 | [3] 0.12 | [4] 0.018 | [5] -0.054

LPGAT1 (UniProt Q92604)
inactive: [1] -0.068 | [2] -0.136 | [3] -0.02 | [4] 0.086 | [5] 0.074

KYAT1 (UniProt Q16773)
inactive: [1] 0.008 | [2] 0.044 | [3] 0.015 | [4] 0.011 | [5] -0.009

LMNA (UniProt P02545)
inactive: [1] 0.043 | [2] -0.016 | [3] -0.044 | [4] -0.017 | [5] 0.052

LMTK2 (UniProt Q8IWU2)
inactive: [1] 0.01 | [2] 0.002 | [3] -0.145 | [4] 0.022 | [5] 0.052

LNPEP (UniProt Q9UIQ6)
inactive: [1] 0.066 | [2] 0.061 | [3] 0.001 | [4] -0.016 | [5] 0.046

LDHB (UniProt P07195)
inactive: [1] 0.044 | [2] 0.024 | [3] 0.028 | [4] -0.018 | [5] 0.006

LPCAT3 (UniProt Q6P1A2)
inactive: [1] 0.019 | [2] 0.071 | [3] -0.011 | [4] -0.093 | [5] -0.052

LLPH (UniProt Q9BRT6)
inactive: [1] 0.094 | [2] -0.399 | [3] -0.586 | [4] 0.31 | [5] -0.001

Reprinted from the listing (2 entries):
LPCAT3 (UniProt Q6P1A2)
inactive: [1] 0.019 | [2] 0.071 | [3] -0.011 | [4] -0.093 | [5] -0.052

LLPH (UniProt Q9BRT6)
inactive: [1] 0.094 | [2] -0.399 | [3] -0.586 | [4] 0.31 | [5] -0.001

Continued.

LRP8 (UniProt E9PP15)
inactive: [1] 0.07 | [2] -0.155 | [3] 0.114 | [4] -0.142 | [5] 0.092

LIMK2 isoform 3 (UniProt P53671)
inactive: [1] -0.166 | [2] -0.083 | [3] 0.178 | [4] 0.104 | [5] 0.015
